Reference: patent US4658013A, “Analgesic and/or opiate antagonist tripeptide amides and processes for preparation and compositions thereof” (Sterling Drug Inc., priority 1983, dated 1987)
Part of at least one peptide drawing is inferred or uncertain, most often the ends.

System: guinea pig ileum longitudinal muscle with adhering myenteric plexus
Assay: Guinea pig ileum test (inhibition of electrically induced twitch of longitudinal muscle strips)
Type: cell-based
Settings: ratio of IC50 of reference Met^5-enkephalin to IC50 of test compound in the same preparation, averaged (N=4); reference given as 100
Protocol: Adult male guinea pigs (Charles River, Hartley strain) weighing 300-500 g. are decapitated, and the terminal ileum is exposed by reflecting the overlying cecum, severed at the ileocecal juncture, and removed while cutting the mesenteric attachments to avoid excessive traction on the tissue. The ileum (about 30 cm. in length) is transferred to a beaker containing warm modified Krebs-Henseleit solution (118 mM sodium chloride, 4.75 mM potassium chloride, 2.54 mM calcium chloride, 1.19 mM potassium dihydrogen phosphate, 1.2 mM magnesium sulfate, 25 mM sodium bicarbonate, 11 mM glucose, 20 μM choline chloride and 0.125 μM pyrilamine maleate). The terminal (aboral) portion (about 10 cm, in length) is discarded, and segments (3-4 cm. in length) are cut from the remainder and gently slid onto a glass rod (5-6 mm. in diameter) and arranged so that the mesenteric attachment is in a straight line. A cotton swab moistened in the solution is then carefully used to separate the longitudinal muscle from the underlying circular muscle. The longitudinal muscle and adhering myenteric plexus is then gently removed from the remaining tissue with forceps. […]
Stimulators (Grass S-44) are set to deliver repetitive, monophasic square wave field stimulation (supramaximal voltage, 0.10 Hz., 0.25 msec. duration) through platinum ring electrodes at the top and bottom of the bath. Regular contractions of the muscle, which result from electrically-induced liberation of acetylcholine from postganglionic parasympathetic nerves, are recorded on a polygraph (Grass model 5). Following tissue equilibration (45-60 min.) and repeated washing (every 10 min.) an aqueous solution of a reference or test compound is added to the bath in a microliter volume (1.25-250 μl) and reductions in muscle twitch height are recorded. […]

Structure (SMILES) | Average Molar Potency Ratio
C[C@@H](NC(=O)[C@@H](N)Cc1ccc(O)cc1)C(=O)N[C@@H](CCc1ccccc1)C(=O)NCCN(C)C [Example 14, (2S)-N-[(2-dimethylamino)ethyl]-2-[(L-tyrosyl-D-alanyl)amino]benzenebutanamide] | 41
CC(C)CCNC(=O)[C@H](CCc1ccccc1)NC(=O)[C@@H](CC[S+](C)[O-])NC(=O)[C@@H](N)Cc1ccc(O)cc1 (stereo partly drawn) [Example 16, (2S)-N-(3-methylbutyl)-2-[(L-tyrosyl-D-methionyl)amino]benzenebutanamide S-oxide] | 1200
CC(C)CCNC(=O)[C@H](CCc1ccccc1)NC(=O)[C@@H](CCS(C)(=O)=O)NC(=O)[C@@H](N)Cc1ccc(O)cc1 [Example 17, (2S)-N-(3-methylbutyl)-2-[(L-tyrosyl-D-methionyl)amino]benzenebutanamide S,S-dioxide] | 110
